In publication doi:10.1101/2021.01.25.428026 one finds binding data, which are given here for two molecules.

For assay [1], the target named is T1, Flag-DJ-1 WT (human), Q99497.
T1 chain: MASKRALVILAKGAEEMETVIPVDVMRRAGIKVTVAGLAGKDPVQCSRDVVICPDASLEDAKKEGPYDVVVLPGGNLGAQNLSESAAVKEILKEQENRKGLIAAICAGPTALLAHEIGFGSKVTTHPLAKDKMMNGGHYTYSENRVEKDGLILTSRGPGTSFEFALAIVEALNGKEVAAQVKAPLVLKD
As to the kind of experiment: non-reducing SDS-PAGE. The note with it: remark: other sources report otherwise.

The target of assay [2] is T2, Flag-DJ-1 C106A (human), Q99497.
T2 chain: T1 chain with C106A
Description: non-reducing SDS-PAGE. The note with it: remark: other sources report otherwise.

Positions count from the first letter of the chain named. In names and notes the source's numbering stands. These are yes or no findings as the source states them, for the method shown. Tags and fused reporters may be left off the sequences shown.

B1: Flag-DJ-1 WT, Q99497 1-189 (protein)
chain: T1 chain
On to B1, for which the binding result in assay [1] was “no binding”.

B2: Flag-DJ-1 C106A, Q99497 1-189 (protein)
chain: T1 chain with C106A
With B2, in assay [2], the binding entry is “no binding”.
